{
  "source": "patent US12729194B2",
  "about": "“Compounds for the treatment of human immunodeficiency virus” (priority 2019, dated 2026)",
  "tested_on": "HIV-1AD8 Env on VLPs",
  "experiment": "Reversibility of compound effects on VLP Env conformation (19b antibody recognition after washing)",
  "settings": "room temperature; for Persistence of effect on 19b recognition after washing: without UV irradiation; for Time until conformational effects on Env are reversed after washing: VLPs in PBS with 2% DMSO",
  "method": "Characterization of VLP-associated Env: To prepare VLPs with HIV-1AD8 Env, 150-mm dishes of 30-40% confluent A549-Gag/Env cells were seeded and, on the following day, treated with 2 μg/ml doxycycline. Approximately 72 hours after induction, cell supernatants were harvested and cleared by low-speed centrifugation (500×g for 15 minutes at 4° C.) and 0.45-μ filtration. VLPs were pelleted by centrifugation at 100,000×g for one hour at 4° C. The resuspended VLP preparation was clarified by low-speed centrifugation. BMS-806 and compounds described herein were added to the clarified VLP-containing suspensions. In some cases, the VLP-compound mixtures were irradiated with a 100-watt, 365-nm ultraviolet (UV) lamp for 10 minutes at room temperature. For all UV studies, exposure of the samples to visible light was minimized.\nFor studies of the reversibility of effects, the compounds were added to the VLPs and mixed for several seconds at room temperature. Then the VLPs were pelleted (20,000×g for 30 minutes at 4° C.) twice, washing with 1.5 ml PBS with 2% DMSO. The pelleted VLPs were resuspended in 1 ml PBS with 2% DMSO and incubated at room temperature for various lengths of time (20 minutes—3 weeks). Control VLPs were incubated in the continued presence of the compounds at room temperature for the same length of time. Then the VLPs were pelleted (20,000×g for 30 minutes at 4° C.) and the pellet incubated with 1.5% Triton X-100 for 30 minutes at 4° C. The VLP lysates were centrifuged (20,000×g for 30 minutes at 4° C.) and the supernatants were incubated with antibodies (10 μg/ml) in a 50-μl volume with 25 mg/ml of Protein A-Sepharose beads for one hour at 4° C. The beads were pelleted (1000 rpm for 1 minute at room temperature) and washed three times with 1 ml wash buffer with 1% Triton X-100. The beads were suspended in NuPAGE LDS Sample Buffer (ThermoFisher), boiled and analyzed by Western blot, as described above.\nThe BMS-806-induced decrease in binding of the 19b anti-V3 antibody can be used as an indicator of BMS-806-Env binding, allowing estimation of the stability of the Env-compound complex. BMS-806 and BMS-529 were incubated with the HIV-1AD8 Env on VLPs. The VLPs were then washed and incubated at room temperature for various lengths of time in a buffer with (+/+) or without (+/−) compound. After this incubation, Env conformation was assessed using the 19b anti-V3 antibody, the 2G12 antibody (the binding of which is not affected by BMS-806), and a negative control human immunoglobulin (hIgG) preparation. 19b recognition of Env in the washed samples (+/−) was compared with those in the samples continuously incubated with the compound (+/+) and the untreated samples (−) (FIG. 4). […] Despite this slow rate of dissociation of compounds described herein from Env, the binding and the consequent effects of these compounds on Env conformation appear to be reversible.",
  "note": "Some entries share one result that the patent states for a list of compounds. Some ranges recur; such a range may be that of the whole group of compounds.",
  "data": [
    {"smiles": "COc1ccc(-c2ccc(CNC(=O)c3ccc(C4(C(F)(F)F)N=N4)cc3)o2)c2[nH]cc(C(=O)C(=O)N3CCN(C(=O)c4ccccc4)CC3)c12", "note": "[AEG-II-159]", "values": [
      {"measurement": "Persistence of effect on 19b recognition after washing", "result": "at least 3 weeks"}
    ]},
    {"smiles": "COc1ccc(-c2ccc(CNC(=O)c3c(F)c(F)c(N=[N+]=[N-])c(F)c3F)o2)c2[nH]cc(C(=O)C(=O)N3CCN(C(=O)c4ccccc4)CC3)c12", "note": "[AEG-II-168]", "values": [
      {"measurement": "Persistence of effect on 19b recognition after washing", "result": "at least 3 weeks"}
    ]},
    {"smiles": "O=C(Nc1cccc2c(C(=O)C(=O)N3CCN(C(=O)c4ccccc4)CC3)c[nH]c12)c1ccc(C2(C(F)(F)F)N=N2)cc1", "note": "[AEG-III-087]", "values": [
      {"measurement": "Persistence of effect on 19b recognition after washing", "result": "at least 3 weeks"}
    ]},
    {"smiles": "O=C(Nc1cccc2c(C(=O)C(=O)N3CCN(C(=O)c4ccccc4)CC3)c[nH]c12)c1ccccc1", "note": "[AEG-III-096]", "values": [
      {"measurement": "Time until conformational effects on Env are reversed after washing", "result": "1 to 4", "unit": "days"}
    ]},
    {"smiles": "COc1cnc(-n2cnc(C)n2)c2[nH]cc(C(=O)C(=O)N3CCN(C(=O)c4ccccc4)CC3)c12", "note": "[BMS-529, reference compound]", "values": [
      {"measurement": "Time until conformational effects on Env are reversed after washing", "result": "1 to 4", "unit": "days"}
    ]},
    {"smiles": "COc1ccnc2[nH]cc(C(=O)C(=O)N3CCN(C(=O)c4ccccc4)C[C@H]3C)c12", "note": "[BMS-806, reference compound]", "values": [
      {"measurement": "Time until conformational effects on Env are reversed after washing", "result": "1 to 4", "unit": "days"}
    ]}
  ]
}
